{
  "source": "paper PMC10830565",
  "about": "(2024)",
  "key": {"[1]": {"target": "BCL7A-HA (Arabidopsis thaliana)", "assay": "co-IP; N. benthamiana leaves co-expressing BRM-N-GFP and BCL7A/B-HA; lysate on anti-HA agarose beads, 4 °C 3 h; immunoblot"}, "[2]": {"target": "BCL7B-HA (Arabidopsis thaliana)", "assay": "co-IP; N. benthamiana leaves co-expressing BRM-N-GFP and BCL7A/B-HA; lysate on anti-HA agarose beads, 4 °C 3 h; immunoblot"}},
  "note": "These are yes or no findings as the source states them, for the method shown. In cells and extracts the contact can be indirect. A result given as binding can be weak or reduced; the word gives no strength. Where a sequence is shown, tags or fusion partners need not be part of it.",
  "data": [
    {"binder": "BRM-N-GFP (domain or fragment, UniProt Q6EVK6 1-952) MQSGGSGGGPARNPAMGPAGRTASTSSAASPSSSSSSVQQQQQQQQQQQQQQQLASRQQQQQHRNSDTNENMFAYQPGGVQGMMGGGNFASSPGSMQMPQQSRNFFESPQQQQQQQQQGSSTQEGQQNFNPMQQAYIQFAMQAQHQKAQQQARMGMVGSSSVGKDQDARMGMLNMQDLNPSSQPQASSSKPSGDQFARGERQTESSSQQRNETKSHPQQQVGTGQLMPGNMIRPMQAPQAQQLVNNMGNNQLAFAQQWQAMQAWARERNIDLSHPANASQMAHILQARMAAQQKAGEGNVASQSPSIPISSQPASSSVVPGENSPHANSASDISGQSGSAKARHALSTGSFASTSSPRMVNPAMNPFSGQGRENPMYPRHLVQPTNGMPSGNPLQTSANETPVLDQNASTKKSLGPAEHLQMQQPRQLNTPTPNLVAPSDTGPLSNSSLQSGQGTQQAQQRSGFTKQQLHVLKAQILAFRRLKKGEGSLPPELLQAISPPPLELQTQRQISPAIGKVQDRSSDKTGEDQARSLECGKESQAAASSNGPIFSKEEDNVGDTEVALTTGHSQLFQNLGKEATSTDVATKEEQQTDVFPVKSDQGADSSTQKNPRSDSTADKGKAVASDGSQSKVPPQANSPQPPKDTASARKYYGPLFDFPFFTRKLDSYGSATANANNNLTLAYDIKDLICEEGAEFLSKKRTDSLKKINGLLAKNLERKRIRPDLVLRLQIEEKKLRLSDLQSRVREEVDRQQQEIMSMPDRPYRKFVRLCERQRLEMNRQVLANQKAVREKQLKTIFQWRKKLLEAHWAIRDARTARNRGVAKYHEKMLREFSKRKDDGRNKRMEALKNNDVERYREMLLEQQTNMPGDAAERYAVLSSFLTQTEDYLHKLGGKITATKNQQEVEEAANAAAVAARLQGLSEEEVRAAATCAREEVVIRNRFTEMNAPKEN", "values": [
      {"measurement": "binding", "setting": "[1]", "result": "binds"},
      {"measurement": "binding", "setting": "[2]", "result": "binds"}
    ]}
  ]
}
